# PMC7819943, “Rice protein-binding microarrays: a tool to detect cis-acting elements near promoter regions in rice”
# Chains of the proteins cited; added tags and fusions are not shown.
# UniProt Q0JBA9, entry or part of it: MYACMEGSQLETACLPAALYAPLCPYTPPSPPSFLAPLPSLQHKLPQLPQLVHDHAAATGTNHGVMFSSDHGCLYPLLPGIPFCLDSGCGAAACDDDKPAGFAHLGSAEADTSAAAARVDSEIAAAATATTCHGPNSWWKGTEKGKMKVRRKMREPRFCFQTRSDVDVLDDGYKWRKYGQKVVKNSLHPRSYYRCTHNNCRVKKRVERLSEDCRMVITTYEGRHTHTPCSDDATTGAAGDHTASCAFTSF
# This is one part of the list.
# Biological target: OsWRKY34 (Oryza sativa, UniProt Q0JBA9 1-250)
# Test: protein-binding microarray (RPBM); PBS, 2% BSA, 51.3 ng/ul salmon testes DNA, 50 uM zinc acetate, 200 nM TF, 25 C, 1 h; high values mean tight binding
# Details: protein: recombinant; tags: N-terminal polyhistidine and DsRed monomer fusion (pET32a); label: CyDye5-dUTP incorporated in the synthesized complementary strand; 3' TTTTT single-stranded linker to array surface; dsDNA, one strand shown
# How it was run: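 Transcription factors were made in E. coli BL21-CodonPlus as N-terminal fusions to a polyhistidine tag and DsRed, then purified on Ni–NTA. After primer extension with Cy5-dUTP and blocking with 2% BSA, a custom Agilent array was exposed for 1 h at 25 °C to 200 nM protein in PBS, 2% BSA, salmon testes DNA and 50 µM zinc acetate. Washed arrays were scanned on an Axon 4000B, and the binding signal is per-feature fluorescence intensity in arbitrary units.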
row,Sequence,binding signal
1,ACGCACCAACCGTCCCTCTTTCGCTCACACTCTTCCTTCCCGGAGTCACCTAGTGCAG,9700 fluorescence intensity (a.u.)
2,CGTTGAACTCTCACTTACTAATTATATGTAAATACACCATCGGAGTCACCTAGTGCAG,9390 fluorescence intensity (a.u.)
3,ATCATTTTATCACTCTTTTTACTACCTCAAATATATCAGTCGGAGTCACCTAGTGCAG,8300 fluorescence intensity (a.u.)
4,TTCCTTTGCCTCGTCATCAAACCGCGCGCGCTCCTCAACTCGGAGTCACCTAGTGCAG,8880 fluorescence intensity (a.u.)
5,TTTCTTAAGTTCTTTTCTGTTCACTTCTGAATTTTTTGGCCGGAGTCACCTAGTGCAG,8600 fluorescence intensity (a.u.)
6,CACAGCGTCCACACCCGCGCCGCCGCCGCCCTCACCCTCGCGGAGTCACCTAGTGCAG,8760 fluorescence intensity (a.u.)
7,CTCACGCCCGCTCCGCCTCAGCCGTCGCTCACGCTCGCTTCGGAGTCACCTAGTGCAG,11000 fluorescence intensity (a.u.)
8,GTACGAGCGCCTCGAAGCAGCCGGCGCCGTCGGGGAGGGGCGGAGTCACCTAGTGCAG,8630 fluorescence intensity (a.u.)
9,TATGTAGCCTTCAACTTTGGTTTCTTTTTTTTGTTGCTCACGGAGTCACCTAGTGCAG,12300 fluorescence intensity (a.u.)
10,TTTCTGAGGGGAGGGAGAGGCTGGGCTGACCGGCTCAAGGCGGAGTCACCTAGTGCAG,10600 fluorescence intensity (a.u.)
11,AAACCGGCCACTGCTACCCCTTTTGTTCCTTGCTATCTCCCGGAGTCACCTAGTGCAG,10100 fluorescence intensity (a.u.)
12,CTGTGATCGCTTTGTTGTACTATTTACCGTTTCTGTTTGTCGGAGTCACCTAGTGCAG,8830 fluorescence intensity (a.u.)
13,TGCTTTCGCCATGACCGTCCTTGGTTGTTGCAGTCACTTGCGGAGTCACCTAGTGCAG,10500 fluorescence intensity (a.u.)
14,GTGCTTGGTAAAGTTTTCCTTTCCACCTTGTAGCTCTGCACGGAGTCACCTAGTGCAG,8090 fluorescence intensity (a.u.)
15,ACTTACCCTCCTGTACGAGTTTTGTGAATCTCTGATCATTCGGAGTCACCTAGTGCAG,8100 fluorescence intensity (a.u.)
16,CATGACATCAGTTTGGCCACACCCAATGGTTCCCGCTGCCCGGAGTCACCTAGTGCAG,8370 fluorescence intensity (a.u.)
17,GCGACGTGTCGTTGGGGCTGGGAGGCTGGGTCGCTCTCGCCGGAGTCACCTAGTGCAG,9830 fluorescence intensity (a.u.)
18,TTCCCTTCTCCGCTTTCCCTGCCTTGCAAATCCGCCAAAGCGGAGTCACCTAGTGCAG,8970 fluorescence intensity (a.u.)
19,TGTTCCTAGTGGTCCTGTCGCCGGCTTGAATTGAAAAGACCGGAGTCACCTAGTGCAG,8220 fluorescence intensity (a.u.)
20,CATGCTGTATGTTCCCACTTTGAATCAAAAAGTGCTGTTACGGAGTCACCTAGTGCAG,8290 fluorescence intensity (a.u.)
21,GGAACATAAGTGTCCGATGGTAGCTATTTGTATACGACGTCGGAGTCACCTAGTGCAG,8230 fluorescence intensity (a.u.)

# Fetched one by one from above (two):
row,Sequence,binding signal
7,CTCACGCCCGCTCCGCCTCAGCCGTCGCTCACGCTCGCTTCGGAGTCACCTAGTGCAG,11000 fluorescence intensity (a.u.)
20,CATGCTGTATGTTCCCACTTTGAATCAAAAAGTGCTGTTACGGAGTCACCTAGTGCAG,8290 fluorescence intensity (a.u.)

# More results.

row,Sequence,binding signal
1,CGATTTCGACCAATCTAGCCGCTATGTGCACTCCTTTTCCCGGAGTCACCTAGTGCAG,12100 fluorescence intensity (a.u.)
2,TCATCTTCCTTAACAACTGCAGCATCACGTCATCGTCATCCGGAGTCACCTAGTGCAG,10300 fluorescence intensity (a.u.)
3,TCGTTGCCTCTCTCGCCGGCCGCCACGCTTGTCGCCCGCGCGGAGTCACCTAGTGCAG,8680 fluorescence intensity (a.u.)
4,TCTCACTCGTCATCCCTTGTCTCATACGTTTTTGCTCACCCGGAGTCACCTAGTGCAG,11700 fluorescence intensity (a.u.)
5,TACAGTCTATTACCTTCTGCTGTGTCTGCTTTGAAACAAACGGAGTCACCTAGTGCAG,8690 fluorescence intensity (a.u.)
6,GAGCGCACGATCCTCCCCTCCGCCGCCGGCCTTGCTTCTTCGGAGTCACCTAGTGCAG,8370 fluorescence intensity (a.u.)
7,ATTTTCCAGTCGTCGTTTTTAGATTGCTAAAAATATGTATCGGAGTCACCTAGTGCAG,8990 fluorescence intensity (a.u.)
8,AAAAGAGCATGTTCATACGCCCTGCATCCGTTAACAACACCGGAGTCACCTAGTGCAG,9980 fluorescence intensity (a.u.)
9,TCACAGGCATTTCCTCAAACACCTACCGGCTACCAGGCAACGGAGTCACCTAGTGCAG,10700 fluorescence intensity (a.u.)
10,TCTTCGGTTTTTTTGTTGGTAACCGATTGGTTACTATTGACGGAGTCACCTAGTGCAG,9580 fluorescence intensity (a.u.)
11,TTGGGTTGGGGTTGGGTTTGCAACTTTGCATAGCGTCGCACGGAGTCACCTAGTGCAG,11500 fluorescence intensity (a.u.)
12,GATTTCGGTAGTCTGTTCTGTTCTTCCAACTGTCTTCTCTCGGAGTCACCTAGTGCAG,12300 fluorescence intensity (a.u.)
13,GTGGTGGGTGGTGGCCGCGCTGCTGCGCGGTGGGTCGCATCGGAGTCACCTAGTGCAG,11400 fluorescence intensity (a.u.)
14,TTATGCATCGATATATACCACATGTCAACCGATGAATTCACGGAGTCACCTAGTGCAG,9490 fluorescence intensity (a.u.)
15,TGTGTTTTATTTTTTTTTCTGGATCGAATTGCCACATAAACGGAGTCACCTAGTGCAG,8970 fluorescence intensity (a.u.)
16,GCCGCCGACTCACCCAACCGCGCGCATCCCCGCGGCCCAACGGAGTCACCTAGTGCAG,8190 fluorescence intensity (a.u.)
17,TTTTGCTGCATTCGCCATCGTCATTGACGAGTCGATCTATCGGAGTCACCTAGTGCAG,8390 fluorescence intensity (a.u.)
18,ACTAGTACTCCCTCCGGTTTCATTTTAATTGACGTTTTGGCGGAGTCACCTAGTGCAG,8700 fluorescence intensity (a.u.)
19,TTGCCGCTCCACTCCGCCGGTCGCACGCTCACTCGCCTGCCGGAGTCACCTAGTGCAG,8870 fluorescence intensity (a.u.)
20,CACAGCGCACATGCACAGCTAGCTAGCTTGACTTTTCCACCGGAGTCACCTAGTGCAG,9680 fluorescence intensity (a.u.)
21,TGCCATATCCTCCGGGGTGCTGTTGACCGTCTTGTTGTAACGGAGTCACCTAGTGCAG,11000 fluorescence intensity (a.u.)
